Measurements as given in US20140349943A1, “TOPICAL FORMULATIONS OF CHEMERIN C15 PEPTIDES FOR THE TREATMENT OF DERMATOLOGICAL CONDITIONS” (priority 2011, published 2014).
At least one compound was matched to its structure with a doubt left.

Test system: IFNγ/LPS stimulated human macrophages
Experiment: Cytokine secretion by IFNγ/LPS stimulated human macrophages (Luminex)
Type: cell-based
Details: dexamethasone 1 μM
Description: In this example, the ability of human chemerin C15 to inhibit secretion of cytokines from activated human macrophages was examined. For this experiment, the activity of the human chemerin C15 peptide […] (SEQ ID NO: 1) was compared to that of the human chemerin C17 peptide […] (SEQ ID NO: 25). The C15 and C17 peptides were synthesized by solid phase synthesis using BOP coupling of FMOC protected amino acids with final cleavage from the resin with TFA. Peptides were purified by reverse phase C18 chromatography using a water/acetonitrile gradient.
Human macrophages were derived from human CD14+ monocytes obtained from 3 donors. On Day 1, the isolated monocytes were thawed and seeded in triplicate for each group in 1 ml RPMI 1640 GlutaMAX™ media (supplemented with 10% FBS, 100 U/ml penicillin, 100 μg/ml streptomycin, 0.05 μM mercaptoethanol, 1% NEAA and 1% sodium pyruvate) per well of a 24 well cell culture dish at a cell concentration of 5×10^5 cells/ml. M-CSF was added to each well to give a final concentration of 25 ng/ml. Cells were grown for 7 days at 37° C. with 5% CO2 to differentiate the cells into macrophages. Media and M-CSF were replaced after 4 days. […]
In this experiment, the importance of the FYFP motif (SEQ ID NO: 2) in the human chemerin C15 peptide on anti-inflammatory activity was examined. […] Cytokine expression was determined as described in Example 1.

## C[C@@H]1C[C@H]2[C@@H]3CCC4=CC(=O)C=C[C@]4(C)[C@@]3(F)[C@@H](O)C[C@]2(C)[C@@]1(O)C(=O)CO [Dexamethasone]
  inhibition of IL-12p40 secretion, compared with C15: slightly stronger than that of C15
